PubChem BioAssay AID1259274 – Sanger Institute – 2017
Assay: 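Kinase knock-downs that cut colorectal cancer cell viability or boost drug killing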 (primary screen). Cell system: human RKO colorectal cancer cells. Knock-down reagent: siRNA pool against human genes. Challenge: anchor drugs BYL719 at 1 µM, cetuximab at 5 µg/ml or trametinib at 10 nM; DMSO vehicle as the no-drug arm. Detection: 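Viability as fraction of non-targeting pool 2 control, averaged across replicates, robust z-score for single knock-down, and a combination synergy score per anchor drug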. Scale: viability z-score, siRNA alone: higher = more viable cells; low values mean essential gene; viability, siRNA alone, vehicle: higher = more viable cells; synergy score with BYL719 and synergy score with Trametinib and synergy score with Cetuximab: higher = stronger combined killing with the drug. Hit rule: 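Essential when the robust viability z-score with siRNA only falls below -3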. Calls: active = essential when knocked down alone; inactive = no change alone.
The deposit covers 794 reagents; shown is an unselected part. Over the whole deposit, 11 (1.4%) are marked active. 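Calls rest on knock-down without drug only; synergy scores with anchor drugs were not used for the essential call.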 A number with no mark means an inactive call. No viability above 1 is reported: the scale is capped. No sequences are given here. The record does not give: the amount of reagent, the time to read-out.

gene knocked down | viability z-score, siRNA alone | viability, siRNA alone, vehicle (fraction of control) | synergy score with BYL719 | synergy score with Trametinib | synergy score with Cetuximab
FN1 (fibronectin 1) | 0.0762 | 0.905 | -0.123 | -0.227 | -0.0225
GUCY2EP (guanylate cyclase 2E, pseudogene) | 0.399 | 0.932 | -0.0837 | -0.108 | 0.0318
SGK2 (serum/glucocorticoid regulated kinase 2) | 0.549 | 0.945 | -0.0175 | -0.136 | 0.0432
PIM1 (Pim-1 proto-oncogene, serine/threonine kinase) | 0.114 | 0.908 | -0.0391 | -0.0598 | 0.0454
DGKQ (diacylglycerol kinase theta) | -3.06 (active) | 0.636 | -0.152 | -0.081 | -0.132
TYK2 (tyrosine kinase 2) | 1.19 | 1 | -0.0751 | -0.136 | 0

The list goes on (2 carried over from the part before).
gene knocked down | viability z-score, siRNA alone | viability, siRNA alone, vehicle (fraction of control) | synergy score with BYL719 | synergy score with Trametinib | synergy score with Cetuximab
DGKQ (diacylglycerol kinase theta) | -3.06 (active) | 0.636 | -0.152 | -0.081 | -0.132
TYK2 (tyrosine kinase 2) | 1.19 | 1 | -0.0751 | -0.136 | 0
MAPK1 (mitogen-activated protein kinase 1) | 0.248 | 0.919 | 0.0922 | 0.0459 | 0.0898
RPS6KB2 (ribosomal protein S6 kinase B2) | -0.475 | 0.857 | -0.0275 | -0.155 | -0.0247
ELP1 (elongator acetyltransferase complex subunit 1) | 1.19 | 1 | 0.024 | -0.101 | 0
ADGRL2 (adhesion G protein-coupled receptor L2) | -0.85 | 0.825 | -0.0544 | -0.11 | -0.112
DAPK3 (death associated protein kinase 3) | 0.907 | 0.976 | -0.0421 | -0.00964 | -0.0243
MAP3K21 (mitogen-activated protein kinase kinase kinase 21) | 0.447 | 0.936 | 0.0622 | -0.145 | 0.0286
RAF1 (Raf-1 proto-oncogene, serine/threonine kinase) | 1.19 | 1 | -0.049 | -0.141 | 0
ERBB4 (erb-b2 receptor tyrosine kinase 4) | -0.66 | 0.841 | -0.191 | -0.288 | -0.159
WHR1 (winged helix repair factor 1) | -0.61 | 0.846 | -0.081 | -0.279 | -0.0811
PRKG1 (protein kinase cGMP-dependent 1) | 0.915 | 0.976 | -0.0652 | -0.176 | -0.0236
TCF12 (transcription factor 12) | -0.672 | 0.84 | 0.0149 | 0.0366 | -0.0211
STK40 (serine/threonine kinase 40) | -0.262 | 0.876 | -0.000721 | -0.149 | -0.0505
MERTK (MER proto-oncogene, tyrosine kinase) | 0.544 | 0.945 | -0.0724 | -0.248 | 0.0243
GTF2H1 (general transcription factor IIH subunit 1) | -0.416 | 0.862 | -0.0454 | -0.0809 | -0.0433
